# Experimental data as given in PubChem BioAssay AID2685 (National Center for Advancing Translational Sciences (NCATS), 2010).
# The campaign covered roughly 320,000 compounds. About 2,100 (0.66%) were called active. This list was built around the results that the source calls inconclusive (neither active nor inactive); the mix of calls is not that of the screen. Calls come from the whole dose curve; as a rule, active = well fitted inhibition curve with a large enough effect in the signal ratio, with a control signal flat (not every such curve was filed as active); inconclusive = small, poorly fitted or top-dose-only effect, or effect the other way, or a change in a side signal; inactive = flat fitted curve, though single readings scatter; the % refers to the signal ratio. A potency beside an inconclusive call is a rough fit, not a confirmed value.
# Experiment: qHTS Assay for Lipid Storage Modulators in Drosophila S3 Cells
# Conditions: BODIPY lipid droplet fluorescence, 18-24 h, cells fed with added oleic acid; lipid storage change, negative = inhibition: at 46.1 µM (top of the series) unless noted
# Summary of the method: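 Drosophila S3 cells got compounds at several concentrations plus oleic acid (400 uM solution). Laser-scanning cytometry with 488 nm excitation read lipid droplets at 500-530 nm and cells at 575-640 nm. Percent activity was relative to 20 uM Triacsin C.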
# % is set by controls: 0 for no effect and ±100 for the full control effect; potency is the fitted concentration of half-maximal effect.
Compound,Potency,"lipid storage change, negative = inhibition",outcome
COc1cccc(S(=O)(=O)NC2CCN(C#N)C2)c1 (stereo not drawn),"inconclusive: 0.0052 µM [falling, full curve, poor fit]",–,–
COc1ccc(Nc2cc(C(=O)NCCCN3CCN(C)CC3)c3ccccc3n2)cc1OC,–,inconclusive: 27.6%,–
CCN(CC)S(=O)(=O)c1ccc(C(=O)OCC(=O)c2ccc3c(c2)NC(=O)CO3)cc1,"inconclusive: 29.1 µM [falling, single point]",–,–
CCC(=O)Nc1ccc(-c2nnc(SCC(=O)Nc3nccs3)n2C)cc1,–,inactive: 8.69%,–
COc1cc(-c2nnc3n2N=C(c2ccccc2)CS3)cc(OC)c1OC,–,inconclusive: 62.3%,–
CN1C2=CC=CC=CC2=[N+](C)C12C([N+](=O)[O-])=CC(=[N+]([O-])[O-])C=C2[N+](=O)[O-] (stereo not drawn),–,inconclusive: -3.54%,–
O=C1CN(S(=O)(=O)c2ccccc2)CC(=O)N1CCc1ccccc1,"inconclusive: 0.259 µM [falling, partial curve, poor fit]",–,–
O=C(O)c1cc2nc3c(c(C(F)(F)F)n2n1)CCCC3,–,inactive: -22.7%,–
O=C(/C=C/c1ccco1)Nc1ccccc1C(=O)O,–,inconclusive: -3.19%,–
COc1ccc(C=O)cc1COc1ccc(F)cc1F,–,inconclusive: 42.2%,–
NC(=O)c1oc2ccccc2c1NC(=O)c1ccc(F)cc1,"inconclusive: 2.31 µM [rising, full curve]",–,–
CC(=O)Nc1ncc(Cc2ccc(Cl)cc2Cl)s1,"inconclusive: 6.51 µM [falling, single point]",–,–
CCCc1nc(SCC(=O)NNC(=O)c2ccc(OC)cc2)c2ccccc2n1,–,inconclusive: -20.4%,–
Cc1cc(C)cc(NC(=O)CSc2nnc(Cc3cccn3C)n2-c2ccc(F)cc2)c1,"inconclusive: 2.06 µM [rising, full curve]",–,–
NS(=O)(=O)c1ccc(CCNC(=O)COC(=O)C2CCCN2C(=O)c2cccs2)cc1 (stereo not drawn),–,inconclusive: -66.1%,–
Cc1ccccc1NC(=O)COC(=O)/C=C/c1cccc(C(F)(F)F)c1,–,inconclusive: 15.6%,–
N#CC1(NC(=O)COC(=O)CN2C(=O)c3ccccc3C2=O)CCCCC1,–,inconclusive,–
CC(=O)c1ccc(NC(=O)C2CCC(C)(C(=O)O)C2(C)C)cc1 (stereo not drawn),–,inconclusive: -6.17%,–
Cc1cnc(C(=O)N(CC(C)C)c2c(N)n(CC(C)C)c(=O)[nH]c2=O)cn1,"inconclusive: 5.8 µM [activator, single point]",–,–
C/C(=N\NC(=O)CNc1cccc2ccccc12)c1ccc(Br)s1,–,inconclusive: -22.7%,–
CCCn1c(N)c(C(=O)CN(C)CC(=O)Nc2ccc(F)cc2)c(=O)[nH]c1=O,–,inconclusive: 2.41%,–
CCOc1ccc(OCC)c(NC(=O)CSc2nc3ccccc3c(=O)n2C)c1,–,inconclusive: 4.2%,–
COc1ccc(Cl)cc1NC(=O)Cn1c(C)csc1=O,"inconclusive: 25.9 µM [activator, single point]",–,–
O=C1N(Cc2cccnc2)C[C@@H]2C[C@@H](c3cccc(C(F)(F)F)c3)N3CCC[C@@]123,–,inconclusive: -11.7%,–
O=C(O)c1ccccc1CSc1nc2ccccc2[nH]1,"inconclusive: 1.03 µM [activator, single point]",–,–
O=c1ccc(=O)n2n1CC(O)C2,–,inconclusive: -5.17%,–

# Some of the entries so far, with bars between the fields.
Compound | Potency | lipid storage change, negative = inhibition | outcome
COc1cccc(S(=O)(=O)NC2CCN(C#N)C2)c1 (stereo not drawn) | inconclusive: 0.0052 µM [falling, full curve, poor fit] | – | –
CN1C2=CC=CC=CC2=[N+](C)C12C([N+](=O)[O-])=CC(=[N+]([O-])[O-])C=C2[N+](=O)[O-] (stereo not drawn) | – | inconclusive: -3.54% | –
NC(=O)c1oc2ccccc2c1NC(=O)c1ccc(F)cc1 | inconclusive: 2.31 µM [rising, full curve] | – | –
Cc1cnc(C(=O)N(CC(C)C)c2c(N)n(CC(C)C)c(=O)[nH]c2=O)cn1 | inconclusive: 5.8 µM [activator, single point] | – | –

# The listing continues:

Compound,Potency,"lipid storage change, negative = inhibition",outcome
Cc1oc(CC(C)C)cc1C(N)=O,–,inconclusive: -29.2%,–
S=C(Nc1ccc(Oc2ccccc2)cc1)Nc1cccnc1,–,inconclusive: -28.8%,–
Cc1ccc(-c2nc(CN(Cc3c(C)nn(C)c3C)C(C)C)c(C)o2)o1,–,inconclusive: 2.95%,–
CCCC1=C(C(=O)OCC)C(c2ccc(N(C)C)cc2)n2ncnc2N1 (stereo not drawn),"inconclusive: 3.26 µM [activator, single point]",–,–
CN(NC(N)=O)c1ncc(C(F)(F)F)cc1Cl,"inconclusive: 29.1 µM [cytotoxic, single point]",–,–
CCCCc1ccc(-c2nc(N)n[nH]2)cc1,"inconclusive: 32.6 µM [falling, single point]",–,–
Cc1ccc(S(=O)(=O)/N=C(/Nc2ccc(O)c(C(=O)O)c2)c2ccccc2)cc1,–,inconclusive: -13.9%,–
COc1ccc(S(=O)(=O)NC(C)C)cc1-n1cnnn1,–,inconclusive: 21.5%,–
C/C(=N\NC(=O)c1cccnc1)c1ccc(-n2ccnc2)cc1,–,inconclusive: 11%,–
C[N+]1(CCOc2ccc([N+](=O)[O-])cc2)CCOCC1,"inconclusive: 5.8 µM [activator, full curve]",–,–
CCN(CC)Cc1oc(CO)cc(=O)c1O,–,inconclusive: -4.01%,–
Cc1cccc(Nc2nc(NCc3ccco3)nc(N3CCOCC3)n2)c1,"inconclusive: 9.2 µM [activator, partial curve]",–,–
CS(=O)(=O)N1N=C(c2ccc3nccnc3c2)CC1c1ccccc1 (stereo not drawn),–,inconclusive: -120%,–
Cc1cc(=O)oc2cc(OCc3ccc(C(=O)N4CCN(c5ccccc5)CC4)cc3)ccc12,"inconclusive: 0.411 µM [activator, full curve]",–,–
O=C(/C=N/O)NCc1ccncc1,"inconclusive: 29.1 µM [falling, partial curve, poor fit]",–,–
CN(C)c1ccc(N=Nc2ccccc2C(=O)OCC(=O)N(C)C2CCCCC2)cc1,"inconclusive: 18.4 µM [cytotoxic, single point]",–,–
Cc1occc1-c1nnc(SCC(=O)N2CCOCC2)o1,"inconclusive: 0.0046 µM [falling, full curve, poor fit]",–,–
CN(C)c1ccc(-c2nc3ccccc3n2C)cc1,"inconclusive: 29.1 µM [falling, single point]",–,–
O=C(c1ccccc1Oc1ccccc1)N1CCN(c2ccc(F)cc2)CC1,–,inactive: -12.6%,–
CC(C)=NNc1nc(-c2ccccc2)c(C)s1,–,inconclusive: 0.428%,–
CCc1ccc(OCC(=O)N/N=C(\C)c2ccccc2OC(F)F)cc1,–,inconclusive: 26.7%,–
CCC(C)OC(=O)C1=C(C)NC2=C(C(=O)C(C(=O)OC)C(C)C2)C1c1ccc(N(C)C)cc1 (stereo not drawn),–,inconclusive: 40.3%,–
CC1Cc2ccccc2N1C(=O)CN1CCCCC1 (stereo not drawn),–,inconclusive: 34.1%,–
Cc1ccc(NC(=O)CC2Oc3ccccc3NC2=O)c(C)c1 (stereo not drawn),"inconclusive: 0.326 µM [activator, full curve, poor fit]",–,–
O=C(c1cc(COc2ccccc2)on1)N1CCCC(CN2CCOCC2)C1 (stereo not drawn),"inconclusive: 6.51 µM [activator, single point]",–,–
N#CCCN(C(=O)COC(=O)CCN=C1NS(=O)(=O)c2ccccc21)c1ccc(F)cc1,–,inconclusive: -14.1%,–

Compound,Potency,"lipid storage change, negative = inhibition",outcome
CCOc1ccc(/C=N/N2CCN(Cc3ccccc3)CC2)cc1,–,inconclusive: 19%,–
Cc1ccc(NC(=O)C2(c3ccccc3)CCOCC2)cc1,–,inactive: -0.379%,–
O=C1CSC(c2ccccn2)N1c1ccc(Br)cc1 (stereo not drawn),–,inconclusive: 10.3%,–
Cc1nn(-c2ccccc2)c(N)c1Sc1ccc([N+](=O)[O-])cc1,"inconclusive: 23.1 µM [falling, partial curve, poor fit]",–,–
CC1N(C)c2cc(NC(=O)c3cccs3)c(P(=O)(Nc3ccc([N+](=O)[O-])cc3)N3CCOCC3)cc2C1(C)C (stereo not drawn),–,inconclusive: 16.3%,–
CCN(CC(=O)Nc1c(F)cccc1F)C(=O)CCNS(=O)(=O)c1ccccc1C(F)(F)F,–,inconclusive: 22.9%,–
CC(=O)Nc1ccc(N2C(=O)CSC2c2ccc(F)cc2)cc1 (stereo not drawn),–,inconclusive: 56.1%,–
COc1ccc(C2C(C#N)=C(N)Oc3cccc(O)c32)cc1 (stereo not drawn),"inconclusive: 20.6 µM [activator, single point]",–,–
CCCC(=O)Nc1ccccc1-c1nnc(SCC)[nH]c1=O,–,inconclusive: -26.7%,–
COc1cc(/C=C2/SC(=S)N(CCC(=O)Nc3ccc(C(=O)O)cc3)C2=O)cc(OC)c1OC,–,inconclusive: 18.9%,–
Cc1c(C(=O)N2CCOCC2)sc2ncnc(N3CCc4ccccc4C3)c12,–,inconclusive: 4.06%,–
CCSc1nc2n(n1)C(c1cccc(F)c1)C1=C(CCCC1=O)N2 (stereo not drawn),–,inconclusive: 9.82%,–
Cc1ccc(O)c(NC(=O)CCC2CCCCC2)c1,–,inconclusive: -20.6%,–
COc1ccc(N(C(=O)c2ccco2)C(C(=O)NC2CCCC2)c2ccc(OC)c(OC)c2)cc1 (stereo not drawn),–,inconclusive: 297%,–
COc1ccc(NS(=O)(=O)c2ccc3oc(SCc4ccc(F)cc4)nc3c2)cc1,–,inconclusive: 22.2%,–
CCn1c(/C=N/n2cnnc2)nc2ccccc21,"inconclusive: 11.6 µM [falling, partial curve]",–,–
COc1nc(-c2ccccc2)c2cc(C)ccc2n1,"inconclusive: 23.1 µM [activator, partial curve]",–,–
CS(=O)(=O)N1CCN(C(=O)Cc2cccs2)CC1,–,inconclusive: -17.9%,–
CC(C)COC(=O)n1ccc(C(=O)N2CCCCC2)n1,–,inconclusive: 14.3%,–
COc1cccc(C(=O)Nc2cccc(OC(C)=O)c2)c1,–,–,inactive [at 46.1 µM]
Cc1cc(NC(=O)Cn2c(=O)c3c(ncn3CC(C)C)n(Cc3ccccc3)c2=O)no1,–,inconclusive: 44.6%,–
COc1ccc(NC(=O)CN(C)C(=O)c2cnc(Cl)c(Cl)c2)cc1,–,inconclusive: -106%,–
O=C(O)CN1C(=O)NC2(CCCc3ccccc32)C1=O (stereo not drawn),–,–,inactive [at 46.1 µM]
CC(NC(=O)C1CCCN(C(=O)c2ccc(Cl)cc2)C1)c1cccc(C(F)(F)F)c1 (stereo not drawn),–,inconclusive: 27.5%,–
COc1ccccc1NC(=O)c1cnc(SC)nc1,"inconclusive: 1.84 µM [activator, full curve, poor fit]",–,–
Nc1c(Cl)cc(-c2cn(CCC(=O)O)c(-c3ccncc3)n2)cc1Cl,–,inconclusive: 34.8%,–
